This passage reports binding results from publication PMC5752445, “Secretory leukocyte protease inhibitor (SLPI) as a potential target for inhibiting metastasis of triple-negative breast cancers” (Oncotarget, 2017).

In assay [1] the target is T1, Retinoblastoma tumor suppressor protein (Rb), endogenous (human (endogenous in MDA-MB-231 and HEK293T)) (UniProt P06400).
T1 sequence: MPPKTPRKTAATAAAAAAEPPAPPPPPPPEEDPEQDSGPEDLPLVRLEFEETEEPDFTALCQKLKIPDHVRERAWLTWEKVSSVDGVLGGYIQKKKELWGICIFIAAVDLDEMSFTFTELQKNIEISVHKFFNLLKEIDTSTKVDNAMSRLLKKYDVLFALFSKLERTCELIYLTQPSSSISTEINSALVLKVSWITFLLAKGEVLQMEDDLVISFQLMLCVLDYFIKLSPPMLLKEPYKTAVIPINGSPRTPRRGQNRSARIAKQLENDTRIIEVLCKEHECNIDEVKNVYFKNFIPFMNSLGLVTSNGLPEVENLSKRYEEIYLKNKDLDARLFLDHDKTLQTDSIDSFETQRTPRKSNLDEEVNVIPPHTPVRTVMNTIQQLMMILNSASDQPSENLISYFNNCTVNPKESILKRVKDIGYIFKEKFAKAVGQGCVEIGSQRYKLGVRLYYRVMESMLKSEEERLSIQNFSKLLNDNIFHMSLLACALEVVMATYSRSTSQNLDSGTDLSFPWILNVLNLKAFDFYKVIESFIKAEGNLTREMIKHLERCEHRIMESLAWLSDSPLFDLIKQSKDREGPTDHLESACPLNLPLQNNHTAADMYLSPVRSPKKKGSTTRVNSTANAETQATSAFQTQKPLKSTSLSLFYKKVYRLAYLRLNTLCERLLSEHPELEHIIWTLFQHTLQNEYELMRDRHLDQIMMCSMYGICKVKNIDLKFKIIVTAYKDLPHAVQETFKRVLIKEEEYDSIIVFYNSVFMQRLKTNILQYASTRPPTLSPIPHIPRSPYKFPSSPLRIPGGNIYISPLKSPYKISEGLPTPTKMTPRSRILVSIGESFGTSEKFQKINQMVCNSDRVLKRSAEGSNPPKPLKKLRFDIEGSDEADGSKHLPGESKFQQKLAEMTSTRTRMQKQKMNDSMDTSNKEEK
In words: co-IP; endogenous proteins in total cell lysates of MDA-MB-231 and HEK293T; lysis buffer Tris-HCl 50 mM pH 7.4, NaCl 150 mM, NP-40 1%, SDS 0.1%, Na-deoxycholate 0.5%, EDTA 1 mM; lysates pre-cleared with IgG; anti-RB or anti-SLPI antibodies on Sepharose-A beads, both directions; control IgG.

The target of assay [2] is Secretory leukocyte protease inhibitor (SLPI), endogenous (human (endogenous in MDA-MB-231 and HEK293T)) (UniProt P03973). The assay is described as above.
Assay [3] concerns the target T2, VP16-FoxM1 fusion protein (pACT-FoxM1) (UniProt Q08050).
T2 sequence: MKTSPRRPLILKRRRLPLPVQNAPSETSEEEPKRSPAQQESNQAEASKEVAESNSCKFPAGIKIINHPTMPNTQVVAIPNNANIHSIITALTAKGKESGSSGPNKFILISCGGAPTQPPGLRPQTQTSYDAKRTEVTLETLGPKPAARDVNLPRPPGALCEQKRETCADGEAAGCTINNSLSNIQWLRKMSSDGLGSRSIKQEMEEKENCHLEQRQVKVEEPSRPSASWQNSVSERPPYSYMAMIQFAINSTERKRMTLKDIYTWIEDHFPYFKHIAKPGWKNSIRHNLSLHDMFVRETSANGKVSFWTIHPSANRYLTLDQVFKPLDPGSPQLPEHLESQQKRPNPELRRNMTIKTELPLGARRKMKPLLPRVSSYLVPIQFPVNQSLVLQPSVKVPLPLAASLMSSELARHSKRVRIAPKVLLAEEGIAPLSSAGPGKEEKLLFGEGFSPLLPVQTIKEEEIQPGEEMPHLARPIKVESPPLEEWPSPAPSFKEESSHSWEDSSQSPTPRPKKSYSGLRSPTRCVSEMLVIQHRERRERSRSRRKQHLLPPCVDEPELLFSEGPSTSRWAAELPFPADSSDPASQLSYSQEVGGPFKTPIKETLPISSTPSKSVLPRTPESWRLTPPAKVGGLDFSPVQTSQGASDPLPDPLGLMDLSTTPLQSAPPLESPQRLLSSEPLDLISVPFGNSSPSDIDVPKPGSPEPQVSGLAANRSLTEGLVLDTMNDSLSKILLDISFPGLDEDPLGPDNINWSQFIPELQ
In words: two-hybrid; mammalian two-hybrid in HEK293T: pBIND (GAL4 DNA-binding domain) and pACT (VP16 activation domain) fusions with pG5luc reporter; luciferase read 48 h after transfection; negative controls pBIND and pACT vectors.

In assay [4] the target is T3, GAL4-Rb fusion protein (pBIND-Rb) (UniProt P06400).
T3 sequence: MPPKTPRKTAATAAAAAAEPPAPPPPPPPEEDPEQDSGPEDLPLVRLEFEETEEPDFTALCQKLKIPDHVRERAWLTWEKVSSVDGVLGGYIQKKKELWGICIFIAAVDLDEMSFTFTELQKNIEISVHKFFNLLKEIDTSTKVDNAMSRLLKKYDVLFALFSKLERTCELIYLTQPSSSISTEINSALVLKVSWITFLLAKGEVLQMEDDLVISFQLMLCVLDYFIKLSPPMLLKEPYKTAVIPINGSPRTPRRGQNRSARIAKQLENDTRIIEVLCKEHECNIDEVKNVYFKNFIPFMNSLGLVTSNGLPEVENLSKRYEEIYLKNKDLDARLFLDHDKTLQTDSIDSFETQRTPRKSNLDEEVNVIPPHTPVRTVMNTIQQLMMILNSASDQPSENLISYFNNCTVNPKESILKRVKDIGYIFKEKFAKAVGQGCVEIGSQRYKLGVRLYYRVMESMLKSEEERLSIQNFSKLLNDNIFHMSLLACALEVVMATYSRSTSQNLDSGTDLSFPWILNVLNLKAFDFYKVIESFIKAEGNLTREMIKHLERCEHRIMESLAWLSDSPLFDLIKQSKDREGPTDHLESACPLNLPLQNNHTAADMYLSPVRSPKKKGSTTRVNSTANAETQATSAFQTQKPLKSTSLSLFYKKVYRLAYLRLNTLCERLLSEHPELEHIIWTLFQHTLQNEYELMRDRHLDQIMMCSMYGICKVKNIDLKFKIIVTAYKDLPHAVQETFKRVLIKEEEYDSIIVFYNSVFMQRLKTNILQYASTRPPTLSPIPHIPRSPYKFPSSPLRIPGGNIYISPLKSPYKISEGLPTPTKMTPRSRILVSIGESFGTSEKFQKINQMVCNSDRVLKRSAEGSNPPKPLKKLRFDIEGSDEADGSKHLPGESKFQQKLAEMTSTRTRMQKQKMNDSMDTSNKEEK
Described as above.

For assay [5], the target named is T3, GAL4-Rb fusion protein (pBIND-Rb). In words: two-hybrid; mammalian two-hybrid in HEK293T with pBIND-Rb and pACT-FoxM1; recombinant SLPI added to the cell medium at 1.5 µg/mL, reporter followed over time.

Results are given in words; binding and its absence hold for the method and conditions named. For some assays here: Binding seen in cells or lysates may run through a third protein. Some results given as binding are weak or reduced against the parent protein; the word gives no strength. For some assays here: Sequences can lack the tags named with a protein.

With “Secretory leukocyte protease inhibitor (SLPI), endogenous (from UniProt P03973 26-132)”, in assay [1], the binding entry is given as “binds”.

B1: Retinoblastoma tumor suppressor protein (Rb), endogenous (protein, UniProt P06400 1-928)
chain: MPPKTPRKTAATAAAAAAEPPAPPPPPPPEEDPEQDSGPEDLPLVRLEFEETEEPDFTALCQKLKIPDHVRERAWLTWEKVSSVDGVLGGYIQKKKELWGICIFIAAVDLDEMSFTFTELQKNIEISVHKFFNLLKEIDTSTKVDNAMSRLLKKYDVLFALFSKLERTCELIYLTQPSSSISTEINSALVLKVSWITFLLAKGEVLQMEDDLVISFQLMLCVLDYFIKLSPPMLLKEPYKTAVIPINGSPRTPRRGQNRSARIAKQLENDTRIIEVLCKEHECNIDEVKNVYFKNFIPFMNSLGLVTSNGLPEVENLSKRYEEIYLKNKDLDARLFLDHDKTLQTDSIDSFETQRTPRKSNLDEEVNVIPPHTPVRTVMNTIQQLMMILNSASDQPSENLISYFNNCTVNPKESILKRVKDIGYIFKEKFAKAVGQGCVEIGSQRYKLGVRLYYRVMESMLKSEEERLSIQNFSKLLNDNIFHMSLLACALEVVMATYSRSTSQNLDSGTDLSFPWILNVLNLKAFDFYKVIESFIKAEGNLTREMIKHLERCEHRIMESLAWLSDSPLFDLIKQSKDREGPTDHLESACPLNLPLQNNHTAADMYLSPVRSPKKKGSTTRVNSTANAETQATSAFQTQKPLKSTSLSLFYKKVYRLAYLRLNTLCERLLSEHPELEHIIWTLFQHTLQNEYELMRDRHLDQIMMCSMYGICKVKNIDLKFKIIVTAYKDLPHAVQETFKRVLIKEEEYDSIIVFYNSVFMQRLKTNILQYASTRPPTLSPIPHIPRSPYKFPSSPLRIPGGNIYISPLKSPYKISEGLPTPTKMTPRSRILVSIGESFGTSEKFQKINQMVCNSDRVLKRSAEGSNPPKPLKKLRFDIEGSDEADGSKHLPGESKFQQKLAEMTSTRTRMQKQKMNDSMDTSNKEEK
B1: the binding result in assay [2] is listed as “binds”.

B2: VP16-SLPI fusion protein (pACT-SLPI) (natural protein, UniProt P03973 1-132, looked up)
chain: MKSSGLFPFLVLLALGTLAPWAVEGSGKSFKAGVCPPKKSAQCLRYKKPECQSDWQCPGKKRCCPDTCGIKCLDPVDTPNPTRRKPGKCPVTYGQCLMLNPPNFCEMDGQCKRDLKCCMGMCGKSCVSPVKA
notes: the legend names only pACT constructs of both; source: HEK293T, transiently transfected, mammalian two-hybrid fusion
B2: the binding entry in assay [3] was “no binding”.

B3: VP16-FoxM1 fusion protein (pACT-FoxM1) (protein, UniProt Q08050 1-763)
chain: MKTSPRRPLILKRRRLPLPVQNAPSETSEEEPKRSPAQQESNQAEASKEVAESNSCKFPAGIKIINHPTMPNTQVVAIPNNANIHSIITALTAKGKESGSSGPNKFILISCGGAPTQPPGLRPQTQTSYDAKRTEVTLETLGPKPAARDVNLPRPPGALCEQKRETCADGEAAGCTINNSLSNIQWLRKMSSDGLGSRSIKQEMEEKENCHLEQRQVKVEEPSRPSASWQNSVSERPPYSYMAMIQFAINSTERKRMTLKDIYTWIEDHFPYFKHIAKPGWKNSIRHNLSLHDMFVRETSANGKVSFWTIHPSANRYLTLDQVFKPLDPGSPQLPEHLESQQKRPNPELRRNMTIKTELPLGARRKMKPLLPRVSSYLVPIQFPVNQSLVLQPSVKVPLPLAASLMSSELARHSKRVRIAPKVLLAEEGIAPLSSAGPGKEEKLLFGEGFSPLLPVQTIKEEEIQPGEEMPHLARPIKVESPPLEEWPSPAPSFKEESSHSWEDSSQSPTPRPKKSYSGLRSPTRCVSEMLVIQHRERRERSRSRRKQHLLPPCVDEPELLFSEGPSTSRWAAELPFPADSSDPASQLSYSQEVGGPFKTPIKETLPISSTPSKSVLPRTPESWRLTPPAKVGGLDFSPVQTSQGASDPLPDPLGLMDLSTTPLQSAPPLESPQRLLSSEPLDLISVPFGNSSPSDIDVPKPGSPEPQVSGLAANRSLTEGLVLDTMNDSLSKILLDISFPGLDEDPLGPDNINWSQFIPELQ
Regarding B3, the binding result in assay [4] and in assay [5] was “binds” in each case.
